Publication PMC6864063
No constants are given. Whether binding was seen depends on the method and setting.

Biological target: Fgr SH3 domain (UniProt P09769)
Assay: SPR; SH3 domains immobilised on one CM5 chip, ChoKα injected in triplicate, 0.1 to 30 µM, 2 min, PBS pH 7.5, 30 µL/min; steady-state KD from RUmax; both purified

binding: no binding (tested: 0.1 to 30 μM)
Substance: Choline kinase alpha, full-length (FL) wild type (from UniProt P35790 1-457) (enzyme)
